According to article doi:10.1101/2024.06.02.596995:
Results are given in words; binding and its absence hold for the method and conditions named. Binding seen in cells or lysates may run through a third protein. Some binding calls cover weakened binding; strength is not graded here. Sequences can lack the tags named with a protein.

Target: T1, MOV10L1-Flag (mouse) (UniProt Q99MV5)
T1 sequence: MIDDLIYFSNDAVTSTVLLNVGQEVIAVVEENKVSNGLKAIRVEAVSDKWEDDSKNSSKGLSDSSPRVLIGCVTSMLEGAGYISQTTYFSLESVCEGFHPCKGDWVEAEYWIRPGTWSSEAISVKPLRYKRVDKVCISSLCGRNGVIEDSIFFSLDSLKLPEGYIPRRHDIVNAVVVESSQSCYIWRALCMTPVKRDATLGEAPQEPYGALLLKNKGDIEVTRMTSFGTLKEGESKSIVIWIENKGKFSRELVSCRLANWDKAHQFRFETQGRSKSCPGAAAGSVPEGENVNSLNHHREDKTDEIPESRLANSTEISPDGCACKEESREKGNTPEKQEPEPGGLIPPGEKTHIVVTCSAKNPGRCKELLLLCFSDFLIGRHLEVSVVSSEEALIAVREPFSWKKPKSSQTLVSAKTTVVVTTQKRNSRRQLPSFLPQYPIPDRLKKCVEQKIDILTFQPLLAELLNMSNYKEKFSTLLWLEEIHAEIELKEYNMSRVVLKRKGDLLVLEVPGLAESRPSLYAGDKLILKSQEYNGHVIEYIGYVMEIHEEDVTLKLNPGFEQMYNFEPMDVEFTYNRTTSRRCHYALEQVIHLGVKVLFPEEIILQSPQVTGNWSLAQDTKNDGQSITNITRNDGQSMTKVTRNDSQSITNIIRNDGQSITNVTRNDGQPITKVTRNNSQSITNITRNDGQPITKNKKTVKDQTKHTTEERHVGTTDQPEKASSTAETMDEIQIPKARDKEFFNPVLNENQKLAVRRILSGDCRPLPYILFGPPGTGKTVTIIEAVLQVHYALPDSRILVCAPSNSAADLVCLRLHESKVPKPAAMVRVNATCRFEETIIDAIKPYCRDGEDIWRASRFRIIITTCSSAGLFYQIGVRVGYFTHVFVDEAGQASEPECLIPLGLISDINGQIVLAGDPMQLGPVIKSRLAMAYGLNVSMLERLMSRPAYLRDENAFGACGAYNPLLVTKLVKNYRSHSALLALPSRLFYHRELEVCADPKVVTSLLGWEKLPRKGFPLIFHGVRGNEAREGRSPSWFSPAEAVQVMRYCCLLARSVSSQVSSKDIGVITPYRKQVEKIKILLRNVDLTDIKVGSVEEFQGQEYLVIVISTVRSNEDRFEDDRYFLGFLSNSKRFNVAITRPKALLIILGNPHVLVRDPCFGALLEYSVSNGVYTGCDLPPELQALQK
Assay: co-IP

binding: binds
B1: Myc-ASZ1 (protein, UniProt Q8VD46 1-475)
chain: MAAGTLRGLAVAGGGESSDSEDDGWDIGYLDRSSQKLKRSLPVEEKNETFKKALTTGDISLVKELLDSGINVDSSFRYGWTPLMYAASVANAELVRFLLDRGANASFDKDKLTILISACSARGSEEQVLKCVELLLSRNADPNTACRRLMTPIMYAARDGHTQVVALLVAHGAEVNAQDENGYTALTWAARQGHKNVILKLLELGANKMLQTKDGRTPSEIAKRNKHLEIFNFLSLTLNPLEGKLQQLTKEETICKLLATDSDKEKDHIFSPYTAFGDLEIFLHGLGLEHMTDSLKEKDITLRHLLTMKKDELTKNGIASKDQQKILAALKELEVEEINFGKLPEVTKLEISGDEFLNFLLKLNKQCGHLITAVQNIITELPVNSHKIVLEWASPRNFTSVCEELVSNVEDLNEEVCRLKELIQKMQNERENDPTHIPLVEEVSTWKTRILKRSAVTVCGFGLLLFIGKLTLQRK
